Data as given in patent US7977477B2, “Benzimidazole derivatives and their use as protein kinase inhibitors” (Astex Therapeutics, Limited, priority 2003, dated 2011).
Some of these results come from one statement about several compounds together.

Molecular target: T1, CDK2/CyclinA (Homo sapiens, UniProt P24941)
T1 construct: purchased Upstate Biotechnology
Assay: CDK2 kinase inhibitory activity (Example 306, Protocol A or B)
Format: biochemical
Conditions: alternative criterion: at least 50% inhibition at 10 μM
Protocol: Compounds of the invention were tested for kinase inhibitory activity using either Protocol A or Protocol B.
1.7 μl of active CDK2/CyclinA (Upstate Biotechnology, 10 U/μl) is diluted in assay buffer (250 μl of 10× strength assay buffer (200 mM MOPS pH 7.2, 250 mM β-glycerophosphate, 50 mM EDTA, 150 mM MgCl2), 11.27 μl 10 mM ATP, 2.5 μl 1M DTT, 25 μl 100 mM sodium orthovanadate, 708.53 μl H2O), and 10 μl mixed with 10 μl of histone substrate mix (60 μl bovine histone H1 (Upstate Biotechnology, 5 mg/ml), 940 μl H2O, 35 μCi γ^33P-ATP) and added to 96 well plates along with 5 μl of various dilutions of the test compound in DMSO (up to 2.5%). The reaction is allowed to proceed for 5 hours before being stopped with an excess of ortho-phosphoric acid (30 μl at 2%).
(§1) γ^33P-ATP which remains unincorporated into the histone H1 is separated from phosphorylated histone H1 on a Millipore MAPH filter plate. The wells of the MAPH plate are wetted with 0.5% orthophosphoric acid, and then the results of the reaction are filtered with a Millipore vacuum filtration unit through the wells. Following filtration, the residue is washed twice with 200 μl of 0.5% orthophosphoric acid. Once the filters have dried, 25 μl of Microscint 20 scintillant is added, and then counted on a Packard Topcount for 30 seconds.
The % inhibition of the CDK2 activity is calculated and plotted in order to determine the concentration of test compound required to inhibit 50% of the CDK2 activity (IC50).
Activated CDK2/CyclinA (Brown et al, Nat. Cell Biol., 1, pp 438-443, 1999; Lowe, E. D., et al Biochemistry, 41, pp 15625-15634, 2002) is diluted to 125 pM in 2.5× strength assay buffer (50 mM MOPS pH 7.2, 62.5 mM O-glycerophosphate, 12.5 mM EDTA, 37.5 mM MgCl2, […], 2.5 mM DTT, 2.5 mM sodium orthovanadate, 0.25 mg/ml bovine serum albumin), and 10 fi mixed with 10 A1 of histone substrate mix (60 μl bovine histone H1 (Upstate Biotechnology, 5 mg/ml), 940 μl H2O, 35 μCi γ^33P-ATP) and added to 96 well plates along with 5 μl of various dilutions of the test compound in DMSO (up to 2.5%). The reaction is allowed to proceed for 2 to 4 hours before being stopped with an excess of ortho-phosphoric acid (5 μl at 2%).
as §1, with “20” for “25”

With O=C(Nc1c[nH]nc1-c1nc2ccccc2[nH]1)c1c(F)cccc1F [Example 6, N-[3-(1H-Benzimidazol-2-yl)-1H-pyrazol-4-yl]-2,6-difluoro-benzamide] the IC50 was < 20 µM.
For CN1CCN(Cc2ccc3[nH]c(-c4n[nH]cc4NC(=O)c4c(F)cccc4F)nc3c2)CC1 [Example 23, 2,6-Difluoro-N-{3-[5-(4-methyl-piperazin-1-ylmethyl)-1H-benzimidazol-2-yl]-1H-pyrazol-4-yl}-benzamide], the IC50 was < 20 µM.
With O=C(Nc1c[nH]nc1-c1nc2cc3c(cc2[nH]1)OCO3)c1c(F)cccc1F [Example 75] the IC50 was < 20 µM.
For O=C(Nc1c[nH]nc1-c1nc2cc(Cl)c(Cl)cc2[nH]1)c1c(F)cccc1F [Example 103, N-[3-(5,6-Dichloro-1H-benzimidazol-2-yl)-1H-pyrazol-4-yl]-2,6-difluoro-benzamide], the IC50 was < 20 µM.
For O=C(Nc1c[nH]nc1-c1nc2cc(C(=O)N3CCOCC3)ccc2[nH]1)c1c(Cl)cccc1Cl [Example 98, 2,6-Dichloro-N-{3-[5-(morpholine-4-carbonyl)-1H-benzimidazol-2-yl]-1H-pyrazol-4-yl}-benzamide], the IC50 was < 20 µM.
O=C(Nc1c[nH]nc1-c1nc2cc(Cl)ccc2[nH]1)c1c(F)cccc1F [Example 26, N-[3-(5-Chloro-1H-benzimidazol-2-yl)-1H-pyrazol-4-yl]-2,6-difluoro-benzamide] was tested, and the IC50 was < 20 µM.
In the case of O=C(Nc1c[nH]nc1-c1nc2c3c(ccc2[nH]1)OCCO3)c1c(F)cccc1F [Example 74], the IC50 is reported as < 20 µM.
In the case of COC(=O)c1cccc2[nH]c(-c3n[nH]cc3NC(=O)c3c(F)cccc3F)nc12 [Example 10, 2-[4-(2,6-Difluoro-benzoylamino)-1H-pyrazol-3-yl]-1H-benzimidazole-4-carboxylic Acid methyl ester], the IC50 is reported as < 20 µM.
With Cc1oc(C(C)(C)C)cc1C(=O)Nc1c[nH]nc1-c1nc2ccccc2[nH]1 [Example 114] the IC50 was < 20 µM.
With O=C(Nc1c[nH]nc1-c1nc2ccccc2[nH]1)c1ccc(-c2cnco2)cc1 [Example 65] the IC50 was < 20 µM.
In the case of Cc1onc(-c2ccccc2)c1C(=O)Nc1c[nH]nc1-c1nc2ccccc2[nH]1 [Example 9, 5-Methyl-3-phenyl-isoxazole-4-carboxylic Acid [3-(1H-benzimidazol-2-yl)-1H-pyrazol-4-yl]-amide], the IC50 is reported as < 20 µM.
For O=C(Nc1c[nH]nc1-c1nc2ccccc2[nH]1)c1ccc(N2CCCC2)cc1Cl [Example 66], the IC50 was < 20 µM.
In the case of O=C(Nc1c[nH]nc1-c1nc2ccccc2[nH]1)c1cccc(CN2CCCC2)c1 [Example 106, N-[3-(1H-Benzimidazol-2-yl)-1H-pyrazol-4-yl]-3-pyrrolidin-1-ylmethyl-benzamide], the IC50 is reported as < 20 µM.
Cc1oc(CN2CCOCC2)cc1C(=O)Nc1c[nH]nc1-c1nc2ccccc2[nH]1 [Example 121] was tested, and the IC50 was < 20 µM.
CN1CCN(C(=O)c2cccc3[nH]c(-c4n[nH]cc4NC(=O)c4c(F)cccc4F)nc23)CC1 [Example 31, 2,6-Difluoro-N-{3-[4-(4-methyl-piperazine-1-carbonyl)-1H-benzimidazol-2-yl]-1H-pyrazol-4-yl}-benzamide] was tested, and the IC50 was < 20 µM.
For COc1cscc1C(=O)Nc1c[nH]nc1-c1nc2ccccc2[nH]1 [Example 116], the IC50 was < 20 µM.
For O=C(Nc1c[nH]nc1-c1nc2cc(CO)ccc2[nH]1)c1c(F)cccc1F [Example 19, 2,6-Difluoro-N-[3-(5-hydroxymethyl-1H-benzimidazol-2-yl)-1H-pyrazol-4-yl]-benzamide], the IC50 was < 20 µM.
With O=C(Nc1c[nH]nc1-c1nc2cnccc2[nH]1)c1c(F)cccc1F [Example 29, 2,6-Difluoro-N-[3-(1H-imidazo[4,5-c]pyridin-2-yl)-1H-pyrazol-4-yl]-benzamide] the IC50 was < 20 µM.
In the case of O=C(Nc1c[nH]nc1-c1nc2cc(F)c(F)cc2[nH]1)c1c(F)cccc1F [Example 71], the IC50 is reported as < 20 µM.
In the case of Cc1cccc2[nH]c(-c3n[nH]cc3NC(=O)c3c(F)cccc3F)nc12 [Example 82], the IC50 is reported as < 20 µM.
With COc1cccc(C(=O)Nc2c[nH]nc2-c2nc3ccccc3[nH]2)c1F [Example 20, N-[3-(1H-Benzimidazol-2-yl)-1H-pyrazol-4-yl]-2-fluoro-3-methoxy-benzamide] the IC50 was < 20 µM.
Cc1cc2[nH]c(-c3n[nH]cc3NC(=O)c3c(F)cccc3F)nc2cc1Cl [Example 79] was tested, and the IC50 was < 20 µM.
COc1cccc(C(=O)Nc2c[nH]nc2-c2nc3ccccc3[nH]2)c1 [Example 33, N-[3-(1H-Benzimidazol-2-yl)-1H-pyrazol-4-yl]-3-methoxy-benzamide] was tested, and the IC50 was < 20 µM.
For COc1ccc(C(=O)Nc2c[nH]nc2-c2nc3ccccc3[nH]2)c(OC)c1 [Example 49], the IC50 was < 20 µM.
COc1cc(F)c(C(=O)Nc2c[nH]nc2-c2nc3cc(CN4CCOCC4)ccc3[nH]2)c(F)c1 [Example 96, 2,6-Difluoro-4-methoxy-N-[3-(5-morpholin-4-ylmethyl-1H-benzimidazol-2-yl)-1H-pyrazol-4-yl]-benzamide] was tested, and the IC50 was < 20 µM.
Cc1cc(C(=O)Nc2c[nH]nc2-c2nc3ccccc3[nH]2)no1 [Example 112] was tested, and the IC50 was < 20 µM.
O=C(Nc1c[nH]nc1-c1nc2ccccc2[nH]1)c1cccc2cccnc12 [Example 34, Quinoline-8-carboxylic Acid [3-(1H-benzimidazol-2-yl)-1H-pyrazol-4-yl]-amide] was tested, and the IC50 was < 20 µM.
O=C(Nc1c[nH]nc1-c1nc2ccccc2[nH]1)c1ccc(OC(F)F)cc1 [Example 51] was tested, and the IC50 was < 20 µM.
In the case of O=C(Nc1c[nH]nc1-c1nc2cc3c(cc2[nH]1)OC(F)(F)O3)c1c(F)cccc1F [Example 85], the IC50 is reported as < 20 µM.
In the case of Cc1ccc2[nH]c(-c3n[nH]cc3NC(=O)c3c(F)cccc3F)nc2c1C [Example 104, N-[3-(4,5-Dimethyl-1H-benzimidazol-2-yl)-1H-pyrazol-4-yl]-2,6-difluoro-benzamide], the IC50 is reported as < 20 µM.
O=C(Nc1c[nH]nc1-c1nc2cc(C(=O)N3CCCC3)ccc2[nH]1)c1c(F)cccc1F [Example 90, 2,6-Difluoro-N-{3-[5-(pyrrolidine-1-carbonyl)-1H-benzimidazol-2-yl]-1H-pyrazol-4-yl}-benzamide] was tested, and the IC50 was < 20 µM.
For O=C(Nc1c[nH]nc1-c1nc2ccccc2[nH]1)c1ccc(CBr)cc1 [Example 42], the IC50 was < 20 µM.
For O=C(Nc1c[nH]nc1-c1nc2ccccc2[nH]1)c1cccc2c1OC(F)(F)O2 [Example 37], the IC50 was < 20 µM.
O=C(Nc1c[nH]nc1-c1nc2c(F)cc(F)cc2[nH]1)c1c(F)cccc1F [Example 72] was tested, and the IC50 was < 20 µM.
CN1CCC(C(=O)Nc2c[nH]nc2-c2nc3ccccc3[nH]2)CC1 [Example 63] was tested, and the IC50 was < 20 µM.
In the case of O=C(Nc1c[nH]nc1-c1nc2cc(CN3CCOCC3)ccc2[nH]1)c1c(Cl)cccc1Cl [Example 94, 2,6-Dichloro-N-[3-(5-morpholin-4-ylmethyl-1H-benzimidazol-2-yl)-1H-pyrazol-4-yl]-benzamide], the IC50 is reported as < 20 µM.
In the case of Cc1noc(C(F)(F)F)c1C(=O)Nc1c[nH]nc1-c1nc2ccccc2[nH]1 [Example 115], the IC50 is reported as < 20 µM.
In the case of CN(C)C(=O)c1ccc2[nH]c(-c3n[nH]cc3NC(=O)c3c(F)cccc3F)nc2c1 [Example 69], the IC50 is reported as < 20 µM.
With CC(C)(C)NCc1cccc2[nH]c(-c3n[nH]cc3NC(=O)c3c(F)cccc3F)nc12 [Example 14, N-{3-[4-(tert-Butylamino-methyl)-1H-benzimidazol-2-yl]-1H-pyrazol-4-yl}-2,6-difluoro-benzamide] the IC50 was < 20 µM.
With O=C(Nc1c[nH]nc1-c1nc2ccccc2[nH]1)c1cc[nH]c1 [Example 113] the IC50 was < 20 µM.
With O=C(Nc1c[nH]nc1-c1nc2c(Cl)cc(C(F)(F)F)cc2[nH]1)c1c(F)cccc1F [Example 78] the IC50 was < 20 µM.
O=C(Nc1c[nH]nc1-c1nc2ccccc2[nH]1)c1ccco1 [Example 39] was tested, and the IC50 was < 20 µM.
In the case of O=C(Nc1c[nH]nc1-c1nc2c(Cl)cccc2[nH]1)c1c(F)cccc1F [Example 77, N-[3-(4-Chloro-1H-benzimidazol-2-yl)-1H-pyrazol-4-yl]-2,6-difluoro-benzamide], the IC50 is reported as < 20 µM.
In the case of Cc1cccc(C(=O)Nc2c[nH]nc2-c2nc3ccccc3[nH]2)c1F [Example 47], the IC50 is reported as < 20 µM.
